According to patent US20090226444A1 (MICROMET, published 2009):
Results are given in words; binding and its absence hold for the method and conditions named. Some entries that bind do so weakly or less than the wild type.

Amino acid sequences for entries named in this document (tags omitted). A change or cut given only in a name is not applied to a line headed by its entry.
UniProt P06731: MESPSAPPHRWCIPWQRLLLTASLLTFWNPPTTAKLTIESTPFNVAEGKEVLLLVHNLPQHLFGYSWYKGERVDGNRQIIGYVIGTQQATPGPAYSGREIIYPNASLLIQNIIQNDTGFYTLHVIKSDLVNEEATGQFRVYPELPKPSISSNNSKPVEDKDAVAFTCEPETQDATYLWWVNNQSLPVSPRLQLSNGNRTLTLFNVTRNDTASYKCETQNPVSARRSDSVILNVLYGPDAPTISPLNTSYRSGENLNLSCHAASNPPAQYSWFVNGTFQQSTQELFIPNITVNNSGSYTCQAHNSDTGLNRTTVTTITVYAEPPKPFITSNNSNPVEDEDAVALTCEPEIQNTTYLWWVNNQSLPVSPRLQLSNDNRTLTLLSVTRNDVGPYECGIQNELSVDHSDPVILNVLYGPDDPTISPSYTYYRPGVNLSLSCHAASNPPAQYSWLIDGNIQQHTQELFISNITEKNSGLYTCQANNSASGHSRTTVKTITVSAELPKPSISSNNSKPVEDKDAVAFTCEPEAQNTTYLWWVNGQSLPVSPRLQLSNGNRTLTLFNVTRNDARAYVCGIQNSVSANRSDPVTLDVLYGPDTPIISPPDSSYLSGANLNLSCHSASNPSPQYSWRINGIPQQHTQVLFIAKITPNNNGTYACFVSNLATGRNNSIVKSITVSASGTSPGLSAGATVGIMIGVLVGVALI

Columns and labels:
[1] = target: soluble human CEA antigen (sCEA; Abcam, Ltd, Cambridge UK) (human) (UniProt P06731); experiment: ELISA on immobilized sCEA
[2] = target: soluble human CEA antigen (sCEA; Abcam, Ltd, Cambridge UK) (human) (UniProt P06731); experiment: summary of Example 2 (ELISA on sCEA)
[3] = target: soluble human CEA antigen (sCEA; Abcam, Ltd, Cambridge UK) (human) (UniProt P06731); experiment: ELISA on immobilized CEA antigen; culture supernatant, 10 and 1 ug/ml antibody

- binding [1]: binds
- binding [2]: binds
- binding [3]: binds
B1: huIgG1 CEA I derived from antibody CEA I (A5B7) (antibody, V domains shown)
VH: EVQLVESGGGLVQPGGSLRLSCATSGFTFTDYYMNWVRQPPGKALEWLGFIGNKANGYTTEYSASVKGRFTISRDKSQSILYLQMNTLRAEDSATYYCTRDRGLRFYFDYWGQGTTVTVSS
VL: DIELTQSPAILSASPGEKVTMTCRASSSVTYIHWYQQKPGSSPKSWIYATSNLASGVPARFSGSGSGTSYSLTISRVEAEDAATYYCQHWSSKPPTFGGGTKLEIKR
